Laboratory results published in PMC10163288.
The other results are listed elsewhere or left out.

B1: il10ra_site1_normal_mot_HHH_b2_02337_000000026_0001_38_52_H_._HHH_b2_05302_0001_0000300029_0000001_0 (protein)
chain: SSSSSDEEELREEVEELLEEARKIPDHREVAELLQRATHFALELGDQELLQEVWRVVRELSSSSS
B2: il10ra_site1_normal_mot_HHH_b2_04912_000000028_0001_1_20_H_._HHH_b2_04788_af2_0001_0000300025_0000001_0 (protein)
chain: SSSSDLSQRALELSKEAVRLALRGNPEEAEELLEEALKLAEEGGNEQLARVIEELLKALEISSSS
B3: il10ra_site1_sap_23_mot_1d093d8facd031590e769bfa2e47527f_0001_000000108_0001_1_11_H_._2421ffacfce1bf9a432afec7a76aa6a2_0001_0001_0000300007_0000001_0_0001 (protein)
chain: SSSSSEDEELLRAALRLAEQLLEHGDPKAARFILEAAILVAEELGDEETLEELQKLLEEVRSSSS
B4: il10ra_site1_normal_mot_HHH_b2_03438_af2_000000049_0001_18_34_H_._HHH_b2_02820_0001_0000300012_0000001_0_af2pred_0001 (protein)
chain: SSSSDEEERRSEELRQRVEEAEEEGDIHLVVRLLRELLEAAKELNDPELLKFIHEVIRSLSSSSS
B5: il10ra_site1_normal_mot_HHH_b1_08477_000000091_0001_40_57_H_._ems_p1-16H-GBL-16H-GABBL-16H_0045_0001_0001_0002_0001_0000200005_0000001_0_af2pred_0001 (protein)
chain: SSSSSRVELAAKVARRAAEEAGDEEAREKVEEVEEALERGEISEEEALELLAKISREIAESSSSS
B6: il10ra_site1_sap_22_mot_HHH_b2_01729_af2_000000109_0001_43_56_H_._HHH_b2_04334_0001_0000200014_0000002_0_0001_af2pred_0001 (protein)
chain: SSSSSDEREVEQLVRAALRLARQTSDPESRKRDLRAARLAAEENNDEEAKRLVQEFEEELSSSSS
B7: il10ra_site1_normal_mot_6792f2186577ebd01aa11eb855ed7b57_0001_af2_000000149_0001_1_16_H_._HHH_b1_00312_af2_0001_0000200004_0000001_0_af2pred_0001 (protein)
chain: SSSSSSDEEEKLEQLLEELEETTDPEELLEIAREISKLAVRANDREFAERAIEILIKSSSSSSSS
B8: il10ra_site1_sap_16_mot_HHH_b1_00999_000000080_0001_41_55_H_._HHH_b2_05851_af2_0001_0000800033_0000001_0_0001_af2pred_0001 (protein)
chain: SSSSSEEEERVLELLLKVYRLLKEGDEEKAEEILREAEELAKEINDPRLRKAVKFYKDALSSSSS
B9: il10ra_site1_sap_26_mot_HHH_b2_03434_000000017_0001_1_19_H_._HHH_b1_00511_af2_0001_0000200009_0000001_0_0001 (protein)
chain: SSSSDKEENEELLEELERLIEEGDHEEALELAQEALRILIQNNDPEALRLLWELVKEIAKISSSS
B10: il10ra_site1_normal_mot_2c1a291787c6f40772924d4e9068d803_0001_af2_000000187_0001_34_48_H_._HHH_b2_04100_0001_0000400022_0000002_0 (protein)
chain: SSSSDEEDRLVFEVAAQAYLLFDKGNEEEARKVLKELEELAEELNDPRARLYVRALEELLSSSSS

Each binder was assayed against il10ra, Q13651 (assay: yeast display titration).

Apparent Kd, inactive:
B1 no binding seen
B2 no binding seen
B3 no binding seen
B4 no binding seen
B5 no binding seen
B6 no binding seen
B7 no binding seen
B8 no binding seen
B9 no binding seen
B10 no binding seen

2 records picked at random from the list so far, as already listed:
Apparent Kd, inactive:
B4 no binding seen
B7 no binding seen
